Values quoted from earlier work as cited in patent publication EP0893690B1, “Detection of mycotoxins by flow-through membrane-based enzyme immunoassay” (priority 1997, dated 1999).
Some entries share one result that the patent states for a list of compounds.

Tested on: monoclonal anti-OA antibody (IgG1 with kappa light chains)
Conditions: result in words

## NC(Cc1ccccc1)C(=O)O (racemic) [D,L-phenylalanine]
  cross-reaction: no cross-reaction

## O=c1cc(O)c2ccccc2o1 [4-hydroxy-coumarin]
  cross-reaction: no cross-reaction

## O=c1ccc2ccccc2o1 [coumarin]
  cross-reaction: no cross-reaction

## ochratoxin a
  cross-reaction: no cross-reaction
